{
  "sequences": {"note": "Protein sequences, listed by entry. Tags and fused reporters are not part of them. Residues count along the entry.", "recombinant His-C1r-CCP1-CCP2 (residues 309-449) (P00736, residues 309-449)": "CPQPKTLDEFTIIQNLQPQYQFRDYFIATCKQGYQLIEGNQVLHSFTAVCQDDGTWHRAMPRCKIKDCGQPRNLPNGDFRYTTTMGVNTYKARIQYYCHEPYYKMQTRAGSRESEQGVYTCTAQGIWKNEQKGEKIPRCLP", "recombinant His-C1r-CCP1 (residues 309-373) (P00736, residues 309-373)": "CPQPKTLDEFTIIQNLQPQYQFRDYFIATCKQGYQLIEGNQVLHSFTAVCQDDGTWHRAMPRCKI"},
  "source": "paper PMC6445466",
  "key": {"[1]": {"target": "T1, BBK32(206-348) (residues 206-348, B. burgdorferi strain B31) (Borrelia burgdorferi strain B31) (UniProt O50835)", "T1 sequence": "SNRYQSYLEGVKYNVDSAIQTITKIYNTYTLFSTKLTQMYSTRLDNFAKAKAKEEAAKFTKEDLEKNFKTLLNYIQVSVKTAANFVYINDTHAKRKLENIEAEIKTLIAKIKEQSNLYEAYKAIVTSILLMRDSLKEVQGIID", "assay": "SPR; Biacore T200, 25 °C, BBK32(206-348) immobilised; C1r fragments as analytes, single-cycle as for C1r, 0.8 to 500 nM; 1:1 Langmuir fit; both purified"}, "[2]": {"target": "T1, BBK32(206-348) (residues 206-348, B. burgdorferi strain B31) (Borrelia burgdorferi strain B31)", "assay": "SPR; Biacore T200, 25°C; BBK32(206-348) immobilised by amine coupling; C1r fragments as analytes, single-cycle kinetics as for C1r, 0.8 to 500 nM; 1:1 kinetic fit; triplicate; both purified"}},
  "note": "Results are given in words; binding and its absence hold for the method and conditions named.",
  "data": [
    {"substance": "His-C1r-CCP1 (residues 309-373) (from UniProt P00736 309-373) (domain or fragment)", "values": [
      {"measurement": "binding", "setting": "[1]", "value": "no binding (tested: 0.8 to 500 nM)"}
    ]},
    {"substance": "His-C1r-CCP1-CCP2 (residues 309-449) (from UniProt P00736 309-449) (domain or fragment)", "values": [
      {"measurement": "binding", "setting": "[1]", "value": "no binding (tested: 0.8 to 500 nM)"}
    ]},
    {"substance": "recombinant His-C1r-CCP1 (residues 309-373) (from UniProt P00736 309-373) (domain or fragment)", "values": [
      {"measurement": "binding", "setting": "[2]", "value": "no binding (tested: 0.8 to 500 nM)"}
    ]},
    {"substance": "recombinant His-C1r-CCP1-CCP2 (residues 309-449) (from UniProt P00736 309-449) (domain or fragment)", "values": [
      {"measurement": "binding", "setting": "[2]", "value": "no binding (tested: 0.8 to 500 nM)"}
    ]}
  ]
}
